Data: PMC12110804, “Molecular Characterization and Functional Analysis of Odorant-Binding Proteins in Ectropis grisescens” (International Journal of Molecular Sciences, 2025)

By UniProt entry, the sequences of proteins in these tests, tags left out. Residues count along the entry.
UniProt A0A977IVV0, 52-196 limits assumed: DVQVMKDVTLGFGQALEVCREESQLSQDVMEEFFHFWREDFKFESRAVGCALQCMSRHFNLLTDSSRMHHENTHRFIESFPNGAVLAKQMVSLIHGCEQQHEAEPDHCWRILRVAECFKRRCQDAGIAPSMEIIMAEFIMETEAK

Target: EgriGOBP2 (Ectropis grisescens, UniProt A0A977IVV0)
Experiment: Fluorescence competitive binding assay (1-NPN displacement) with recombinant EgriGOBP2
Settings: read-out: EgriGOBP2 Ki; Ki = [IC50]/(1 + [1-NPN]/K1-NPN); 2 µM EgriGOBP2/1-NPN mixture, pH 7.4

With `C=C(C)[C@H]1CC=C(C)C(=O)C1` [(S)-(+)-carvone] the Ki was < 10 µM and 4.84 µM.

The source holds more than one record for some entries. This list holds those alone. The source may hold further records. Values given together do not match, cause unknown; dose, time, organism, isomer or construct need not be as stated for each record.
